Laboratory results: patent US20180105596A1 (ELSALYS BIOTECH, published 2018)
These are yes or no findings as the source states them, for the method shown. Some results given as binding are weak or reduced against the parent protein; the word gives no strength.

Target: T1, human recombinant full-length Tyro3 protein (OriGene TP308260) (human) (UniProt Q06418)
T1 sequence: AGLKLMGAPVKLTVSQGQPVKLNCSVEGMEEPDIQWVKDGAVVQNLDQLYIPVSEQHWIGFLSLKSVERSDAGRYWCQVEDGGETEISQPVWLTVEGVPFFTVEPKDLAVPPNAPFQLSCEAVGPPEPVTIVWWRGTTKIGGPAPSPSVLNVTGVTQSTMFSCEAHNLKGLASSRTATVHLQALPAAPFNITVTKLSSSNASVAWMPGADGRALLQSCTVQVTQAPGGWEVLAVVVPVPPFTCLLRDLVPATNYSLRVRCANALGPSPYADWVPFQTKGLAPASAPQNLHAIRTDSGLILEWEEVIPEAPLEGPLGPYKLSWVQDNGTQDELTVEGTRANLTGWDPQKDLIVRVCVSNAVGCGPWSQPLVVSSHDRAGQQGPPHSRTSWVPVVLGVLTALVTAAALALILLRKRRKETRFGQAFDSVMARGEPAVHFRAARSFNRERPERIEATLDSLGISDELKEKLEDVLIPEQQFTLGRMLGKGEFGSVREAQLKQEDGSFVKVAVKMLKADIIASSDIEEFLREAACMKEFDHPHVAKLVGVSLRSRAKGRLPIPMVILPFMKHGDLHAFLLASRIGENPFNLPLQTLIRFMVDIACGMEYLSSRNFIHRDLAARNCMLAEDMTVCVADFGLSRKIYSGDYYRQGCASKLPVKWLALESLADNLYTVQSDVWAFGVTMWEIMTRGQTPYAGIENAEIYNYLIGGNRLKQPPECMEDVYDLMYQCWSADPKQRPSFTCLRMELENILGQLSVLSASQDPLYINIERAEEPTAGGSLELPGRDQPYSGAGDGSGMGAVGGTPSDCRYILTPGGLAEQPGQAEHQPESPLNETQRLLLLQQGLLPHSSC
Assay: ELISA, full-length Tyro3 coated 2.5 µg/mL, biotinylated GAS6 2.5 µg/mL, streptavidin-HRP

- binding: binds
B1: biotinylated GAS6 (ligand, UniProt Q14393 49-678, looked up)
chain: AFQVFEEAKQGHLERECVEELCSREEAREVFENDPETDYFYPRYLDCINKYGSPYTKNSGFATCVQNLPDQCTPNPCDRKGTQACQDLMGNFFCLCKAGWGGRLCDKDVNECSQENGGCLQICHNKPGSFHCSCHSGFELSSDGRTCQDIDECADSEACGEARCKNLPGSYSCLCDEGFAYSSQEKACRDVDECLQGRCEQVCVNSPGSYTCHCDGRGGLKLSQDMDTCEDILPCVPFSVAKSVKSLYLGRMFSGTPVIRLRFKRLQPTRLVAEFDFRTFDPEGILLFAGGHQDSTWIVLALRAGRLELQLRYNGVGRVTSSGPVINHGMWQTISVEELARNLVIKVNRDAVMKIAVAGDLFQPERGLYHLNLTVGGIPFHEKDLVQPINPRLDGCMRSWNWLNGEDTTIQETVKVNTRMQCFSVTERGSFYPGSGFAFYSLDYMRTPLDVGTESTWEVEVVAHIRPAADTGVLFALWAPDLRAVPLSVALVDYHSTKKLKKQLVVLAVEHTALALMEIKVCDGQEHVVTVSLRDGEATLEVDGTRGQSEVSAAQLQERLAVLERHLRSPVLTFAGGLPDVPVTSAPVTAFYRGCMTLEVNRRLLDLDEAAYKHSDITAHSCPPVEPAAA
modifications: biotinylated
